Source: patent US12286661B2, “Methods for making high intensity sweeteners” (Firmenich Incorporated, priority 2018, dated 2025)

Assay: Analytical results: observed concentration of the sensory test solutions
Assay type: physicochemical
Details: theoretical 175 ppm in LSB, n = 2

For `C[C@H](CC[C@@H](O[C@@H]1O[C@H](CO[C@H]2O[C@H](CO)[C@@H](O)[C@H](O)[C@H]2O)[C@@H](O)[C@H](O)[C@H]1O[C@@H]1O[C@H](CO)[C@@H](O)[C@H](O)[C@H]1O)C(C)(C)O)C1CC[C@@]2(C)C3CC=C4C(CC[C@H](O[C@@H]5O[C@H](CO)[C@@H](O)[C@H](O)[C@H]5O)C4(C)C)[C@]3(C)[C@H](O)C[C@]12C` (some centres unmarked) [Compound 1], the “Observed” value (Test Day) was 132.20 ± 1.54 µM and the “Observed” value (the day before the testing day) was 134.48 ± 7.31 µM.
